This is an account of results in the supplement of paper PMC10849652.

Chains of the proteins cited; added tags and fusions are not shown. Lines headed by an entry give the natural chain unless they say otherwise; changes in a name come on top.
UniProt Q5SVS4: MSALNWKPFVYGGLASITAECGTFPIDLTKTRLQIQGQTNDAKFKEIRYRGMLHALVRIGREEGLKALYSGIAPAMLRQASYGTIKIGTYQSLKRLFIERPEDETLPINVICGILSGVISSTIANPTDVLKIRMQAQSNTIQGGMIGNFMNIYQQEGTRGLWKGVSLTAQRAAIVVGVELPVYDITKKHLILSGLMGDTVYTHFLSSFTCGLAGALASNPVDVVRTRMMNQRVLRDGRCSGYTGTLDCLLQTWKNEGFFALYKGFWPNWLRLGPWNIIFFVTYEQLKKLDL
UniProt P14672: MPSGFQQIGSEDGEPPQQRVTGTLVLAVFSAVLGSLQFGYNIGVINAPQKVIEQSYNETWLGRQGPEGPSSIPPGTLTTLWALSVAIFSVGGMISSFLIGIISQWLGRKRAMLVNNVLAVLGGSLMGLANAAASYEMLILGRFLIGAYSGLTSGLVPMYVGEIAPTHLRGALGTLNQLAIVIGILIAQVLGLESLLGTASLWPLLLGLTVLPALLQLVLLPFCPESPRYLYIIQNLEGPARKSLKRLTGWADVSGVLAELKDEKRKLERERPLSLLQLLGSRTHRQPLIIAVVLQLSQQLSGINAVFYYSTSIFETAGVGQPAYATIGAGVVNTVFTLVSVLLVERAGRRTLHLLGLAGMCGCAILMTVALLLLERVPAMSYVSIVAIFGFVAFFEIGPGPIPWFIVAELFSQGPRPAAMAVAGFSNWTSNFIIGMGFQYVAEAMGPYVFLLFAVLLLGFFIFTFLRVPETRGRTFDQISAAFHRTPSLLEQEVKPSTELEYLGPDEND
UniProt Q14BN4: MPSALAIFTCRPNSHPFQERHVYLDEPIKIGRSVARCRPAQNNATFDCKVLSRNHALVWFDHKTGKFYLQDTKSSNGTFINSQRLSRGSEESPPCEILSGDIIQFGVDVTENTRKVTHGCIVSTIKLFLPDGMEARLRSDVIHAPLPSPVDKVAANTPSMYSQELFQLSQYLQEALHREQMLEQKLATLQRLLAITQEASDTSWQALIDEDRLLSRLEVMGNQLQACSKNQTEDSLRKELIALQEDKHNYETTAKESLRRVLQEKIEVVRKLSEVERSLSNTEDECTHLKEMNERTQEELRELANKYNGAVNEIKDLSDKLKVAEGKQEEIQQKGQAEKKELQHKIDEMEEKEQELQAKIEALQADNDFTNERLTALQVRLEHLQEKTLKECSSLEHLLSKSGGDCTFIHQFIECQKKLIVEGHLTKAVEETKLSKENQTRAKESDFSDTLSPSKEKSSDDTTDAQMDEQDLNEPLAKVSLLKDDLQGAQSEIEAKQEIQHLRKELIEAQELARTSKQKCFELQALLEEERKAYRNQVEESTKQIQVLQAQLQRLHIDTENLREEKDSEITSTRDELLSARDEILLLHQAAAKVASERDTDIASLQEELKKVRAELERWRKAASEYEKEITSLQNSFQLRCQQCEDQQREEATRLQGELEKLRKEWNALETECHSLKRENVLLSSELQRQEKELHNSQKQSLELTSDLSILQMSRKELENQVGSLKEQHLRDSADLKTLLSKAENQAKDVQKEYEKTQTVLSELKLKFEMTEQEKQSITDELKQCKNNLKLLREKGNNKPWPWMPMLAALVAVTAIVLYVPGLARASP
UniProt Q6KCM7: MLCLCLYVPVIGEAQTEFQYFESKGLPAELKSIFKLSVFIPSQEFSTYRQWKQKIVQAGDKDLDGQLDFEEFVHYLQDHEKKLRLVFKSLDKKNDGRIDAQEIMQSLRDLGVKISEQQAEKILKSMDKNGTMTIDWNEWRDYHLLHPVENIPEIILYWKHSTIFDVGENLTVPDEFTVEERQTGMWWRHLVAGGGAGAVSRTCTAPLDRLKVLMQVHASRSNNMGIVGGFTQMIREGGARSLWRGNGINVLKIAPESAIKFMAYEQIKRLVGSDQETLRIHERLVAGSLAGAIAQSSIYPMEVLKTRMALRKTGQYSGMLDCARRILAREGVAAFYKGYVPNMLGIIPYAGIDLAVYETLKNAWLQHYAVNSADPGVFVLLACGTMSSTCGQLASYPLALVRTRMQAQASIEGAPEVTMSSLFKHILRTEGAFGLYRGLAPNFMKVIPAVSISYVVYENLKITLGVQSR
UniProt Q96T83: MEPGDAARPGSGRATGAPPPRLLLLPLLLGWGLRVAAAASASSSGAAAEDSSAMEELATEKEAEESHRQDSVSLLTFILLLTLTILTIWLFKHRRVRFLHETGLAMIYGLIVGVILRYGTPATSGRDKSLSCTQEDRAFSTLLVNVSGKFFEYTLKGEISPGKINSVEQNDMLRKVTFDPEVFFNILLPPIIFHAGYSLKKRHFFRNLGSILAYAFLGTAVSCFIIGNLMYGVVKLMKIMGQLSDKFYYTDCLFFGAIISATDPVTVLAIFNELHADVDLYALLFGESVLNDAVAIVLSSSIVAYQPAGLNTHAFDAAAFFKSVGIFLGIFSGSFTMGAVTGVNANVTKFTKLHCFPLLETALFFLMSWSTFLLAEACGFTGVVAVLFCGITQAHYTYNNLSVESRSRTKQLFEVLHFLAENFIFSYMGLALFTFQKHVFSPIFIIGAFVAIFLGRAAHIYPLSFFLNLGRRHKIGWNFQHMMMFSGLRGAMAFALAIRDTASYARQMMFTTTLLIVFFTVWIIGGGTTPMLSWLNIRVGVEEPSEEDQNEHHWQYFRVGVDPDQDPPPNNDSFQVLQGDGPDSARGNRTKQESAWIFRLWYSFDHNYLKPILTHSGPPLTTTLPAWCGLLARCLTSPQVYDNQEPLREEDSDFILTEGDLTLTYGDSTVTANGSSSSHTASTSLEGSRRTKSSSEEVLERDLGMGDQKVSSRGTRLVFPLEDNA
UniProt Q9H2H9: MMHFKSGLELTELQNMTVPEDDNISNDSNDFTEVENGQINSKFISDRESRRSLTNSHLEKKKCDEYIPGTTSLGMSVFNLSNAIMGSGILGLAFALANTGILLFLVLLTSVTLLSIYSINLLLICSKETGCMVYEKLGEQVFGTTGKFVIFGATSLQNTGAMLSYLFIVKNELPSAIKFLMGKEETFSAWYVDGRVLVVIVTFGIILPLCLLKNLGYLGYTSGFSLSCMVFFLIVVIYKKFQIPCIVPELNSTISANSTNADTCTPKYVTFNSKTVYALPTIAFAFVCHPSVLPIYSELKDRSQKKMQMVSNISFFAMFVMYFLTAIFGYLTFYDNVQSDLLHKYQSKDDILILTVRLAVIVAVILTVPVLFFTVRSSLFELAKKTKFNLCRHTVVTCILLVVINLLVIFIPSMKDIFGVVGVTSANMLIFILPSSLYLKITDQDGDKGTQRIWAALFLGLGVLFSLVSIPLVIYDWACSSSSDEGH
UniProt O76082: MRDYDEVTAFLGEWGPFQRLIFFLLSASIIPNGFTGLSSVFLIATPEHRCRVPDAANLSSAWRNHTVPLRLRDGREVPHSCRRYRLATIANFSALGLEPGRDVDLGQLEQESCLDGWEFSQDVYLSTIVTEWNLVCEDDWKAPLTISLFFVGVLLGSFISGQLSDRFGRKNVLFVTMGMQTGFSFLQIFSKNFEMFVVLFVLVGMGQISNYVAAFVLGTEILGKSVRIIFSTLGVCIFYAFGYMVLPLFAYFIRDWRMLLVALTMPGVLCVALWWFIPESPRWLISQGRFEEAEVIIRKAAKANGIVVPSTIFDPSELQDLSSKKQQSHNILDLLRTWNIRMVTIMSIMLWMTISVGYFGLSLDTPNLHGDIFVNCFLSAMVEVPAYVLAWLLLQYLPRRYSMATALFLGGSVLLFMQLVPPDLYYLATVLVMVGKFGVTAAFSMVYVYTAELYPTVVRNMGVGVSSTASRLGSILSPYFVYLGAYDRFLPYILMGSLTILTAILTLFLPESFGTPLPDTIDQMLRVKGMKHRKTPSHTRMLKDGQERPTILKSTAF
UniProt Q8NBI5: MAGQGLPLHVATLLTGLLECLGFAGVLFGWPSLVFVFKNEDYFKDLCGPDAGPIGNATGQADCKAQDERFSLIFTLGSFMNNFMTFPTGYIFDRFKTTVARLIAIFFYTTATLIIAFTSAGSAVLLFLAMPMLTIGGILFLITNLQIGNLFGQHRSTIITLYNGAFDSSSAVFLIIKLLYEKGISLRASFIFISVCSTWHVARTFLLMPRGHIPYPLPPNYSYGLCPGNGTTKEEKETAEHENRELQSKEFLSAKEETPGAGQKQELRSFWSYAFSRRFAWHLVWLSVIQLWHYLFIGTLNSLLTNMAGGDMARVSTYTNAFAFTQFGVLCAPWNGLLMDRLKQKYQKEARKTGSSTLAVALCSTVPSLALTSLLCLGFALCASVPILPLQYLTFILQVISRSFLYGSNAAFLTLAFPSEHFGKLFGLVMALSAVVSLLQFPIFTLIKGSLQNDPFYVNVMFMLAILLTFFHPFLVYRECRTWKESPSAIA
UniProt Q9H1N7: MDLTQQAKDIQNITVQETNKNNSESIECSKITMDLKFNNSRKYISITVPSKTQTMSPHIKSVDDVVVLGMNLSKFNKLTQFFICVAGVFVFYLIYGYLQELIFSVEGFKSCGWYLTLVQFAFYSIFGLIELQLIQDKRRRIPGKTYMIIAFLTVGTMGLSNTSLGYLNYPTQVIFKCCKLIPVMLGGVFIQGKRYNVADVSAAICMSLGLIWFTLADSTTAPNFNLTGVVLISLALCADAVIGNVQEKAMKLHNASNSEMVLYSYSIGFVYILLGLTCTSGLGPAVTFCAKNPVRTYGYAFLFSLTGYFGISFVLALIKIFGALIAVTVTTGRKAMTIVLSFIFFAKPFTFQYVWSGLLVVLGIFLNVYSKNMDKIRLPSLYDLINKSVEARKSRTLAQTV
UniProt P52569: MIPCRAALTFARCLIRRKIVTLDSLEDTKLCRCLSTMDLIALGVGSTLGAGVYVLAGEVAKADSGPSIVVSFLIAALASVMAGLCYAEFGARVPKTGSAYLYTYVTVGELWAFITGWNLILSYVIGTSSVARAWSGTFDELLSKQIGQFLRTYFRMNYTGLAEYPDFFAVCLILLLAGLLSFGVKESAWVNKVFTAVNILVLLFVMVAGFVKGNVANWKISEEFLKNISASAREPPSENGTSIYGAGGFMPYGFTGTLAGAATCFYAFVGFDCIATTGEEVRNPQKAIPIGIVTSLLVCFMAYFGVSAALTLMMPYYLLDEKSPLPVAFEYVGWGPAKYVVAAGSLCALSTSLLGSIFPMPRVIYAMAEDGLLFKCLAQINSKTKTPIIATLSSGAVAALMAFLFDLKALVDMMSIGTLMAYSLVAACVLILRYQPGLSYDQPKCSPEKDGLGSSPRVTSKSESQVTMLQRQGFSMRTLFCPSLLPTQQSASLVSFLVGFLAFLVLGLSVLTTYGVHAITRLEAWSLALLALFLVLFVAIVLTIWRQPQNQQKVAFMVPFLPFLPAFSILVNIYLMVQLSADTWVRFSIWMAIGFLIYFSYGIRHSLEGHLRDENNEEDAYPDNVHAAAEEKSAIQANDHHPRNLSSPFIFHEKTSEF
UniProt P11169: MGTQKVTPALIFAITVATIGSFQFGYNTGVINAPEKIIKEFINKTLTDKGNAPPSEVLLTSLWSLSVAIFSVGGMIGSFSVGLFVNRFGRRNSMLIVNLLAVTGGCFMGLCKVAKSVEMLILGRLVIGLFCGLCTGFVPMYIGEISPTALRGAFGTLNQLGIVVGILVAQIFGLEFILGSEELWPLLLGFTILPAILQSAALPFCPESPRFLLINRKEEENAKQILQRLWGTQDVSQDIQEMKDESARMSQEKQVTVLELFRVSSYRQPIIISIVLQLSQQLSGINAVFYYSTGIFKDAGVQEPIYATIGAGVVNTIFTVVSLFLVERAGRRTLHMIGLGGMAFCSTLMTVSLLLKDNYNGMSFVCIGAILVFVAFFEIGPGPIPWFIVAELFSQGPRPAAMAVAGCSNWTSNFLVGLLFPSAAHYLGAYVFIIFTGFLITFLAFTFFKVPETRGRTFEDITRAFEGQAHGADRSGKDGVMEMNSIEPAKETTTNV
UniProt Q9NYZ2: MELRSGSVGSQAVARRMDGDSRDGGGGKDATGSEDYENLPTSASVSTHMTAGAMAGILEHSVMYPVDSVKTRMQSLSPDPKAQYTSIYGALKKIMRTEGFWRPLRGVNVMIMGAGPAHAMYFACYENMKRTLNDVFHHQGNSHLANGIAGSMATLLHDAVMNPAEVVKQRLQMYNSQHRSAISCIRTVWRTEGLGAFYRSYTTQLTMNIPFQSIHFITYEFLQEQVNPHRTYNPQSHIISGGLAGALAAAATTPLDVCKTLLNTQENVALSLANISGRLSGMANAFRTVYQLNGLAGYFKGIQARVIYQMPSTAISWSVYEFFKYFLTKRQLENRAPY
UniProt O43772: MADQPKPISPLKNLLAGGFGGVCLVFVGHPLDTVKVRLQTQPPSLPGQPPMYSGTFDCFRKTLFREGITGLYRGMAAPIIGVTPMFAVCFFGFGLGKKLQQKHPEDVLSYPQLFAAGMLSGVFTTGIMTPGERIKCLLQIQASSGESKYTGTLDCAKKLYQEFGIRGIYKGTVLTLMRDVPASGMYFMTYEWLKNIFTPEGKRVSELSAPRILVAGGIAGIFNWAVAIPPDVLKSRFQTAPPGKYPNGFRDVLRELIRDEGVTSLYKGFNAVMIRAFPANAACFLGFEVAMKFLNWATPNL

The list shows a part of the results.

Compound in this experiment: CC1=C(SC2=C1C(=N[C@H](C3=NN=C(N32)C)CC(=O)N)C4=CC=C(C=C4)Cl)C
Nature of the experiment: log2 fold change, soluble protein after heating vs DMSO (PISA); higher = thermal stabilisation; K562 lysate, 10 uM; active = over 0.2 and 3.5 SD of the protein, either way, in both replicates (recomputed). The gist of the method:
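Quantification was by TMTpro 16plex LC-MS/MS with equalised channel sums, applied to the supernatant after 21,000xg for 90 min. Samples were crude K562 extract at 1 mg/mL protein in PBS pH 7.4 with 1 mM MgCl2, treated with 10 μM compound for 30 min, heated for 3 min across 48°C-58°C, pooled and brought to 0.5% NP-40 at 4°C. Values are log-two fold changes in thermal stability relative to solvent controls, from duplicates.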
For the target SLC35F6 (UniProt Q8N357), the log2 fold change was inactive: -0.04.

With SLC25A30 (UniProt Q5SVS4), the log2 fold change is inactive: 0.044. The figure for SLC31A1 (UniProt O15431) is inactive: 0.024; for SLC2A4 (UniProt P14672) it is inactive: -0.003. With SLC25A15 (UniProt Q9Y619), the log2 fold change is inactive: 0.002. As for SLTM (UniProt Q9NWH9), the figure is inactive: 0.021; as for SLMAP isoform 3 (UniProt Q14BN4), inactive: -0.009. As for SLC25A25 isoform 3 (UniProt Q6KCM7), the figure is inactive: -0.027; as for SLC29A2 (UniProt Q14542), inactive: 0.001; as for SLC48A1 (UniProt Q6P1K1), inactive: 0.052. Consider SLC9A7 (UniProt Q96T83), for which the log2 fold change was inactive: -0.056. As to SLC38A1 (UniProt Q9H2H9), the log2 fold change was inactive: -0.116. As for SLC22A5 isoform 3 (UniProt O76082), the figure is inactive: 0.

Consider SLC43A3 (UniProt Q8NBI5), for which the log2 fold change is inactive: 0.035. As for SLC35B3 (UniProt Q9H1N7), the figure is inactive: -0.024; as for SMAP2 (UniProt Q8WU79), inactive: -0.002. The figure for SLU7 (UniProt O95391) is inactive: 0.041; for SLC7A2 isoform 3 (UniProt P52569) it is inactive: 0; for SLC2A3 (UniProt P11169) it is inactive: 0.024. As for SLC25A51 (UniProt Q9H1U9), the figure is inactive: 0.014; as for SLC25A37 (UniProt Q9NYZ2), inactive: 0.027. Consider SLC25A20 (UniProt O43772), for which the log2 fold change is inactive: 0.008.
